Record: PubChem BioAssay AID743121 (NCATS, 2013)
Shown is an unselected part of about 26,000 reagents. In the full data, 167 (0.63%) are marked active. 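Calls are per gene from RSA p-values that are not deposited; an individual active-marked siRNA can sensitise only weakly.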 A number with no mark means an inactive call. The numbers tell different reagents against one gene apart. Not all columns of the deposit are shown. Reagent sequences are not shown.

- Screen: 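Knock-downs that sensitise breast cancer cells to camptothecin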 (primary screen)
- System: MDA-MB-231 cells, a human breast cancer line
- Knock-down reagent: single siRNA against human genes, 20 nM siRNA (0.8 pmol per well)
- Timing: 120 h (drug added 48 h after transfection, read 72 h later)
- Conditions: camptothecin 20 nM (about EC30) for 72 h; vehicle 0.1% DMSO in parallel plates
- Measurement: 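Cell viability by ATP luminescence (CellTiter-Glo) as % of non-targeting siRNA wells, and the log2 ratio of viability without drug over viability with camptothecin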
- Scale: log2 vehicle/camptothecin viability: higher = stronger sensitisation to camptothecin; viability with camptothecin: higher = more viable cells
- Units: viability with camptothecin in % of control
- Active means: 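Active genes have an RSA gene-level p-value below 0.001, computed from the ratios of their separate siRNAs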

PXK #1
- log2 vehicle/camptothecin viability: -0.314
- viability with camptothecin: 121

PXK #2
- log2 vehicle/camptothecin viability: -0.328
- viability with camptothecin: 81.9

PXK #3
- log2 vehicle/camptothecin viability: -0.416
- viability with camptothecin: 66.9

PXK #4
- log2 vehicle/camptothecin viability: -0.196
- viability with camptothecin: 120

OPCML #1
- log2 vehicle/camptothecin viability: -0.0783
- viability with camptothecin: 24.3

OPCML #2
- log2 vehicle/camptothecin viability: -0.0955
- viability with camptothecin: 82.2

OPCML #3
- log2 vehicle/camptothecin viability: 0.051
- viability with camptothecin: 56

OPCML #4
- log2 vehicle/camptothecin viability: 0.00949
- viability with camptothecin: 92.7

OPCML #5
- log2 vehicle/camptothecin viability: 0.0475
- viability with camptothecin: 86.1

TNFAIP1 #1
- log2 vehicle/camptothecin viability: -0.667
- viability with camptothecin: 88.2

TNFAIP1 #2
- log2 vehicle/camptothecin viability: -0.083
- viability with camptothecin: 72.8

TNFAIP1 #3
- log2 vehicle/camptothecin viability: -0.339
- viability with camptothecin: 106

TNFAIP1 #4
- log2 vehicle/camptothecin viability: -0.177
- viability with camptothecin: 80.2

CLIC3 #1
- log2 vehicle/camptothecin viability: 0.0324
- viability with camptothecin: 102

CLIC3 #2
- log2 vehicle/camptothecin viability: -0.496
- viability with camptothecin: 83.2

CLIC3 #3
- log2 vehicle/camptothecin viability: -0.384
- viability with camptothecin: 61.8

CINP #1
- log2 vehicle/camptothecin viability: 0.0866
- viability with camptothecin: 43.4

CINP #2
- log2 vehicle/camptothecin viability: 0.326
- viability with camptothecin: 66.9

CINP #3
- log2 vehicle/camptothecin viability: -0.274
- viability with camptothecin: 75.3

CINP #4
- log2 vehicle/camptothecin viability: -0.367
- viability with camptothecin: 56.1

TIMP3 #1
- log2 vehicle/camptothecin viability: -0.147
- viability with camptothecin: 108

TIMP3 #2
- log2 vehicle/camptothecin viability: 0.226
- viability with camptothecin: 46.4

TIMP3 #3
- log2 vehicle/camptothecin viability: -0.539
- viability with camptothecin: 98.7

Records listed so far whose target name begins with O or o:
OPCML #1
- log2 vehicle/camptothecin viability: -0.0783
- viability with camptothecin: 24.3

OPCML #2
- log2 vehicle/camptothecin viability: -0.0955
- viability with camptothecin: 82.2

OPCML #3
- log2 vehicle/camptothecin viability: 0.051
- viability with camptothecin: 56

OPCML #4
- log2 vehicle/camptothecin viability: 0.00949
- viability with camptothecin: 92.7

OPCML #5
- log2 vehicle/camptothecin viability: 0.0475
- viability with camptothecin: 86.1

Continued:
IFNAR1 #1
- log2 vehicle/camptothecin viability: -0.745
- viability with camptothecin: 110

IFNAR1 #2
- log2 vehicle/camptothecin viability: -0.0842
- viability with camptothecin: 108

IFNAR1 #3
- log2 vehicle/camptothecin viability: -0.175
- viability with camptothecin: 93.1

IFNAR1 #4
- log2 vehicle/camptothecin viability: 0.419
- viability with camptothecin: 43.1

TUBG2 #1
- log2 vehicle/camptothecin viability: -0.424
- viability with camptothecin: 96.8

TUBG2 #2
- log2 vehicle/camptothecin viability: -0.461
- viability with camptothecin: 49.5

TUBG2 #3
- log2 vehicle/camptothecin viability: -0.243
- viability with camptothecin: 69.2

TUBG2 #4
- log2 vehicle/camptothecin viability: 0.0603
- viability with camptothecin: 71.8

MCL1 #1
- log2 vehicle/camptothecin viability: -0.334
- viability with camptothecin: 19.2

MCL1 #2
- log2 vehicle/camptothecin viability: 0.698
- viability with camptothecin: 36.4

MCL1 #3
- log2 vehicle/camptothecin viability: 0.387
- viability with camptothecin: 7.57

GP1BB #1
- log2 vehicle/camptothecin viability: 1.27
- viability with camptothecin: 15.1

GP1BB #2
- log2 vehicle/camptothecin viability: -0.0519
- viability with camptothecin: 75.3

GP1BB #3
- log2 vehicle/camptothecin viability: -0.33
- viability with camptothecin: 98.3

ADAM10 #1
- log2 vehicle/camptothecin viability: -0.288
- viability with camptothecin: 59.2

ADAM10 #2
- log2 vehicle/camptothecin viability: -0.308
- viability with camptothecin: 111

ADAM10 #3
- log2 vehicle/camptothecin viability: -0.103
- viability with camptothecin: 104

ADAM10 #4
- log2 vehicle/camptothecin viability: 0.162
- viability with camptothecin: 74.5

OR10J1 #1
- log2 vehicle/camptothecin viability: 0.561
- viability with camptothecin: 30

OR10J1 #2
- log2 vehicle/camptothecin viability: -0.481
- viability with camptothecin: 98.7

OR10J1 #3
- log2 vehicle/camptothecin viability: -0.0218
- viability with camptothecin: 104

OR10J1 #4
- log2 vehicle/camptothecin viability: -0.677
- viability with camptothecin: 89.3
